Measured values as given in publication PMC10532290.
No constants are given. Whether binding was seen depends on the method and setting. Binding seen in cells or lysates may run through a third protein. Some results given as binding are weak or reduced against the parent protein; the word gives no strength. For some assays here: Tags and fused reporters may be left off the sequences shown.

The chains behind the UniProt entries cited, without tags or fusion partners.
UniProt Q14145: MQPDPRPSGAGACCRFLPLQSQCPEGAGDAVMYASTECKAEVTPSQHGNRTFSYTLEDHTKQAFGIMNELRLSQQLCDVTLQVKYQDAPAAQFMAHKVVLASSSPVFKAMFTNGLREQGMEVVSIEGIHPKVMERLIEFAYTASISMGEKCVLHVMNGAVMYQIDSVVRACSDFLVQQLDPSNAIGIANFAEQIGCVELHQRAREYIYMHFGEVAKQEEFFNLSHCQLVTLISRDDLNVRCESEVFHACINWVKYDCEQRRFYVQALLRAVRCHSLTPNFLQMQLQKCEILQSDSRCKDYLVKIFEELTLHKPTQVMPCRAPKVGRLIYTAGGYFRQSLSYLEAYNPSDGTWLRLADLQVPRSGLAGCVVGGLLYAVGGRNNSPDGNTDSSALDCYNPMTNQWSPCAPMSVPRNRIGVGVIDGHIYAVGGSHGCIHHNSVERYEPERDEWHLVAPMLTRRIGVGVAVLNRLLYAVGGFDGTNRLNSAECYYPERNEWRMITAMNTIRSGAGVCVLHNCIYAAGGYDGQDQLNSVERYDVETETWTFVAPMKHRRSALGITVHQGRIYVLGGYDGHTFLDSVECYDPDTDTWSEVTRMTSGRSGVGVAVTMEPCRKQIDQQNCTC

T1: HA-DPP3 (dipeptidyl peptidase 3, wild type) (human) (UniProt Q9NY33)
T1 sequence: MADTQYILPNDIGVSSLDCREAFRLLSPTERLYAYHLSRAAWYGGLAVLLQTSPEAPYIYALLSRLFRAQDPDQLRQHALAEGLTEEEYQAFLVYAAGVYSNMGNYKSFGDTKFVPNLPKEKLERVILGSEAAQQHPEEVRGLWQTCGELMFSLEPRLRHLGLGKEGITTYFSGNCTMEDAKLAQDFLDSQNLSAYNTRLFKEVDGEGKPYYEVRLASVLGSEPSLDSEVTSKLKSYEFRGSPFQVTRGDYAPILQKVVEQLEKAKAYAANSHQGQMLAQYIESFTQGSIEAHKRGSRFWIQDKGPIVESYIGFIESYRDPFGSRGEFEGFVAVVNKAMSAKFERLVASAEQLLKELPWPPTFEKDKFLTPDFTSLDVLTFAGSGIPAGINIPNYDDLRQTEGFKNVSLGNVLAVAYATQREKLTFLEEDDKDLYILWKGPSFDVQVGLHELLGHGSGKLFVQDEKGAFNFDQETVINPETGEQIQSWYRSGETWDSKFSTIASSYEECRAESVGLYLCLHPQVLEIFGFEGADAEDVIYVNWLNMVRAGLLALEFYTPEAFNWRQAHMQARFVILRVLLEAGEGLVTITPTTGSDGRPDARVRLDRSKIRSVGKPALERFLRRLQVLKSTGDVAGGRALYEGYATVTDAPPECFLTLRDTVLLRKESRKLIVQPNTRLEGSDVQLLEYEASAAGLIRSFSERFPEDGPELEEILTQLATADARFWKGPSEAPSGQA

T2: GST-DPP3-E451A (catalytically inactive variant) (human) (UniProt Q9NY33)
T2 sequence: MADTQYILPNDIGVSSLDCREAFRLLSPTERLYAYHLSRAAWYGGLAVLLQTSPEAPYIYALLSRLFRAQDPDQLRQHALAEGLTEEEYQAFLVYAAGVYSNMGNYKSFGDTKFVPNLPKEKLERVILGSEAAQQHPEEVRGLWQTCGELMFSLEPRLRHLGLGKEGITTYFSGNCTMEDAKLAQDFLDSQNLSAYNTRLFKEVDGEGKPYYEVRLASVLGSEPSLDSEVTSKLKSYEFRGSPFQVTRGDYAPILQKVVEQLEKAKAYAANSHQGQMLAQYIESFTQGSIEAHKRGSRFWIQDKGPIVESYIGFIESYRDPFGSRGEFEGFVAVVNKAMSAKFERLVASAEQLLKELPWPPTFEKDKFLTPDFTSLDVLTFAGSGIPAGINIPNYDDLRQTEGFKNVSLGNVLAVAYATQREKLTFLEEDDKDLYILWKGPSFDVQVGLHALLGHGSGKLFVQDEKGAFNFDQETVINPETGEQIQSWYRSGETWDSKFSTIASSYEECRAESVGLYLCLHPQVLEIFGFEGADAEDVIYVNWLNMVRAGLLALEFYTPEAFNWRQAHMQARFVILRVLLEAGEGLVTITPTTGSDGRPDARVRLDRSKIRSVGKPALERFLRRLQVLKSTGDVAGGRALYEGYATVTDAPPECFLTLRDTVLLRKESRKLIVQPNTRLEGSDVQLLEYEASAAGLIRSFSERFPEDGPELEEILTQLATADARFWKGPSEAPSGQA

T3: GST-DPP3 (wild type) (human) (UniProt Q9NY33)
T3 sequence: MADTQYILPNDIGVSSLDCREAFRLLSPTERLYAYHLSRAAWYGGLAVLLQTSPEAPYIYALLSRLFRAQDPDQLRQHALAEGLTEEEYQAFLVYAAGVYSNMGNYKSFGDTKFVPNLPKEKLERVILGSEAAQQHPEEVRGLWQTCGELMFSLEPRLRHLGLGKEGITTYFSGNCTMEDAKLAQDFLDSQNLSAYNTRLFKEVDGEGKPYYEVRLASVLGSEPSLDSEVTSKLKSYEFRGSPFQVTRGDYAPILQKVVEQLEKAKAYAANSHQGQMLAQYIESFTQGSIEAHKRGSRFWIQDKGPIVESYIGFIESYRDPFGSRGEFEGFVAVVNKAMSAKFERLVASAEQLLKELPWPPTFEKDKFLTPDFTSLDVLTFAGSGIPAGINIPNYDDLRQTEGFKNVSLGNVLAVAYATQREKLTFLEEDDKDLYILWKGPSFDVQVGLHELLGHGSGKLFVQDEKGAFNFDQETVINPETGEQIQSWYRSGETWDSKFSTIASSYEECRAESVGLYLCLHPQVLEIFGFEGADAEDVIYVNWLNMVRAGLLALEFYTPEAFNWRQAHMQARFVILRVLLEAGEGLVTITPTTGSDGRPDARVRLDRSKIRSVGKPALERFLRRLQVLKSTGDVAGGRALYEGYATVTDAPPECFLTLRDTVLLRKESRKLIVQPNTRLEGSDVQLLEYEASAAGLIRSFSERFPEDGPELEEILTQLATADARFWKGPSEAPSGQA

T4: DPP3-VenusfN chimera (human) (UniProt Q9NY33)
T4 sequence: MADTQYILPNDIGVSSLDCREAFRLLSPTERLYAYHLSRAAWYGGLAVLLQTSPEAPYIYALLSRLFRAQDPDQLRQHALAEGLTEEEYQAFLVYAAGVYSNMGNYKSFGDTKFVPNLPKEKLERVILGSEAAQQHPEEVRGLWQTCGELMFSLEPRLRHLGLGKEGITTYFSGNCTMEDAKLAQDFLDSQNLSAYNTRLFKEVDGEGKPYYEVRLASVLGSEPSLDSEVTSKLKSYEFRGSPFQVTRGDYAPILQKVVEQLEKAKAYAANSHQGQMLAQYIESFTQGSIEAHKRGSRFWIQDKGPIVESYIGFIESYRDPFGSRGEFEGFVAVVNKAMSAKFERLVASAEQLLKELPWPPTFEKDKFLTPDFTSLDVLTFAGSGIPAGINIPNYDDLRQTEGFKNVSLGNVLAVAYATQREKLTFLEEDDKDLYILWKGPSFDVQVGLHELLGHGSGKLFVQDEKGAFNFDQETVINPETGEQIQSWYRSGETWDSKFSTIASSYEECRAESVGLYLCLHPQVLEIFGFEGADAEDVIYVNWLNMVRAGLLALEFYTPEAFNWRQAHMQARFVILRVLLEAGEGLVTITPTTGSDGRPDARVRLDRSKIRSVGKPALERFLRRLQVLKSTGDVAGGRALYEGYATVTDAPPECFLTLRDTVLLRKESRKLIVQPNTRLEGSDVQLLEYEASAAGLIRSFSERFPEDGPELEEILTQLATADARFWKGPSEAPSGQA


Experiments:
[1] = biological target: T1, HA-DPP3 (dipeptidyl peptidase 3, wild type) (human); assay: co-IP; anti-HA agarose beads precipitate HA-DPP3 from lysates of TRex HEK293T cells (doxycycline-induced) transiently expressing the FLAG-tagged prey; lysis buffer 50 mM Tris pH 7.5, 75 mM NaCl, 1 mM EDTA, 0.1% Triton X-100; 4 °C, 2-3 h; anti-FLAG Western blot
[2] = biological target: T2, GST-DPP3-E451A (catalytically inactive variant) (human); assay: pull-down; GST fusion bound to glutathione-agarose beads, mixed with HEK293T lysate (PBS/1% NP-40) with the FLAG-tagged prey; 1 h at room temperature; anti-FLAG Western blot; only the target purified
[3] = biological target: T3, GST-DPP3 (wild type) (human); assay: as above
[4] = biological target: T4, DPP3-VenusfN chimera (human); assay: split reporter; BiFC with Venus fragments (N-terminal 158 aa, C-terminal 82 aa), live NIH 3T3 cells transiently transfected, confocal microscopy

Row | Molecule | binding [1] | binding [2] | binding [3] | binding [4]
1 | FLAG-KEAP1 (Kelch-like ECH-associated protein 1) (from UniProt Q14145 1-624) | binds | – | – | –
2 | FLAG-tagged SH2D3C protein isoform 3 (protein, UniProt Q8N5H7-3 1-506) MKRRSVTMTDGLTADKVTRSDGCPTSTSLPRPRDSIRSCALSMDQIPDLHSPMSPISESPSSPAYSTVTRVHAAPAAPSATALPASPVARRSSEPQLCPGSAPKTHGESDKGPHTSPSHTLGKASPSPSLSSYSDPDSGHYCQLQPPVRGSREWAATETSSQQARSYGERLKELSENGAPEGDWGKTFTVPIVEVTSSFNPATFQSLLIPRDNRPLEVGLLRKVKELLAEVDARTLARHVTKVDCLVARILGVTKEMQTLMGVRWGMELLTLPHGRQLRLDLLERFHTMSIMLAVDILGCTGSAEERAALLHKTIQLAAELRGTMGNMFSFAAVMGALDMAQISRLEQTWVTLRQRHTEGAILYEKKLKPFLKSLNEGKEGPPLSNTTFPHVLPLITLLECDSAPPEGPEPWGSTEHGVEVVLAHLEAARTVAHHGGLYHTNAEVKLQGFQARPELLEVFSTEFQMRLLWGSQGASSSQARRYEKFDKVLTALSHKLEPAVRSSEL | binds | binds | binds | –
3 | SH2D3C-VenusfC chimera (isoform 1) (protein, UniProt Q8N5H7 1-860) MTEGTKKTSKKFKFFKFKGFGSLSNLPRSFTLRRSSASISRQSHLEPDTFEATQDDMVTVPKSPPAYARSSDMYSHMGTMPRPSIKKAQNSQAARQAQEAGPKPNLVPGGVPDPPGLEAAKEVMVKATGPLEDTPAMEPNPSAVEVDPIRKPEVPTGDVEEERPPRDVHSERAAGEPEAGSDYVKFSKEKYILDSSPEKLHKELEEELKLSSTDLRSHAWYHGRIPREVSETLVQRNGDFLIRDSLTSLGDYVLTCRWRNQALHFKINKVVVKAGESYTHIQYLFEQESFDHVPALVRYHVGSRKAVSEQSGAIIYCPVNRTFPLRYLEASYGLGQGSSKPASPVSPSGPKGSHMKRRSVTMTDGLTADKVTRSDGCPTSTSLPRPRDSIRSCALSMDQIPDLHSPMSPISESPSSPAYSTVTRVHAAPAAPSATALPASPVARRSSEPQLCPGSAPKTHGESDKGPHTSPSHTLGKASPSPSLSSYSDPDSGHYCQLQPPVRGSREWAATETSSQQARSYGERLKELSENGAPEGDWGKTFTVPIVEVTSSFNPATFQSLLIPRDNRPLEVGLLRKVKELLAEVDARTLARHVTKVDCLVARILGVTKEMQTLMGVRWGMELLTLPHGRQLRLDLLERFHTMSIMLAVDILGCTGSAEERAALLHKTIQLAAELRGTMGNMFSFAAVMGALDMAQISRLEQTWVTLRQRHTEGAILYEKKLKPFLKSLNEGKEGPPLSNTTFPHVLPLITLLECDSAPPEGPEPWGSTEHGVEVVLAHLEAARTVAHHGGLYHTNAEVKLQGFQARPELLEVFSTEFQMRLLWGSQGASSSQARRYEKFDKVLTALSHKLEPAVRSSEL | – | – | – | binds

Second part, the molecule after the results:

Row | binding [1] | binding [2] | binding [3] | binding [4] | Molecule
4 | – | binds | binds | – | FLAG-tagged SH2D3C C-terminal Ras GEF-like domain (f539) (domain or fragment, UniProt Q8N5H7 539-860) GKTFTVPIVEVTSSFNPATFQSLLIPRDNRPLEVGLLRKVKELLAEVDARTLARHVTKVDCLVARILGVTKEMQTLMGVRWGMELLTLPHGRQLRLDLLERFHTMSIMLAVDILGCTGSAEERAALLHKTIQLAAELRGTMGNMFSFAAVMGALDMAQISRLEQTWVTLRQRHTEGAILYEKKLKPFLKSLNEGKEGPPLSNTTFPHVLPLITLLECDSAPPEGPEPWGSTEHGVEVVLAHLEAARTVAHHGGLYHTNAEVKLQGFQARPELLEVFSTEFQMRLLWGSQGASSSQARRYEKFDKVLTALSHKLEPAVRSSEL
5 | binds | binds | binds | – | FLAG-tagged SH2D3C protein isoform 2 (protein, UniProt Q8N5H7-2 1-703) MTAVGRRCPALGSRGAAGEPEAGSDYVKFSKEKYILDSSPEKLHKELEEELKLSSTDLRSHAWYHGRIPREVSETLVQRNGDFLIRDSLTSLGDYVLTCRWRNQALHFKINKVVVKAGESYTHIQYLFEQESFDHVPALVRYHVGSRKAVSEQSGAIIYCPVNRTFPLRYLEASYGLGQGSSKPASPVSPSGPKGSHMKRRSVTMTDGLTADKVTRSDGCPTSTSLPRPRDSIRSCALSMDQIPDLHSPMSPISESPSSPAYSTVTRVHAAPAAPSATALPASPVARRSSEPQLCPGSAPKTHGESDKGPHTSPSHTLGKASPSPSLSSYSDPDSGHYCQLQPPVRGSREWAATETSSQQARSYGERLKELSENGAPEGDWGKTFTVPIVEVTSSFNPATFQSLLIPRDNRPLEVGLLRKVKELLAEVDARTLARHVTKVDCLVARILGVTKEMQTLMGVRWGMELLTLPHGRQLRLDLLERFHTMSIMLAVDILGCTGSAEERAALLHKTIQLAAELRGTMGNMFSFAAVMGALDMAQISRLEQTWVTLRQRHTEGAILYEKKLKPFLKSLNEGKEGPPLSNTTFPHVLPLITLLECDSAPPEGPEPWGSTEHGVEVVLAHLEAARTVAHHGGLYHTNAEVKLQGFQARPELLEVFSTEFQMRLLWGSQGASSSQARRYEKFDKVLTALSHKLEPAVRSSEL
6 | – | – | – | binds | VenusfC-SH2D3C chimera (isoform 1) (protein, UniProt Q8N5H7 1-860) MTEGTKKTSKKFKFFKFKGFGSLSNLPRSFTLRRSSASISRQSHLEPDTFEATQDDMVTVPKSPPAYARSSDMYSHMGTMPRPSIKKAQNSQAARQAQEAGPKPNLVPGGVPDPPGLEAAKEVMVKATGPLEDTPAMEPNPSAVEVDPIRKPEVPTGDVEEERPPRDVHSERAAGEPEAGSDYVKFSKEKYILDSSPEKLHKELEEELKLSSTDLRSHAWYHGRIPREVSETLVQRNGDFLIRDSLTSLGDYVLTCRWRNQALHFKINKVVVKAGESYTHIQYLFEQESFDHVPALVRYHVGSRKAVSEQSGAIIYCPVNRTFPLRYLEASYGLGQGSSKPASPVSPSGPKGSHMKRRSVTMTDGLTADKVTRSDGCPTSTSLPRPRDSIRSCALSMDQIPDLHSPMSPISESPSSPAYSTVTRVHAAPAAPSATALPASPVARRSSEPQLCPGSAPKTHGESDKGPHTSPSHTLGKASPSPSLSSYSDPDSGHYCQLQPPVRGSREWAATETSSQQARSYGERLKELSENGAPEGDWGKTFTVPIVEVTSSFNPATFQSLLIPRDNRPLEVGLLRKVKELLAEVDARTLARHVTKVDCLVARILGVTKEMQTLMGVRWGMELLTLPHGRQLRLDLLERFHTMSIMLAVDILGCTGSAEERAALLHKTIQLAAELRGTMGNMFSFAAVMGALDMAQISRLEQTWVTLRQRHTEGAILYEKKLKPFLKSLNEGKEGPPLSNTTFPHVLPLITLLECDSAPPEGPEPWGSTEHGVEVVLAHLEAARTVAHHGGLYHTNAEVKLQGFQARPELLEVFSTEFQMRLLWGSQGASSSQARRYEKFDKVLTALSHKLEPAVRSSEL
